{"sequences": {"note": "Protein sequences, listed by entry. Tags and fused reporters are not part of them.", "UniProt P09695": "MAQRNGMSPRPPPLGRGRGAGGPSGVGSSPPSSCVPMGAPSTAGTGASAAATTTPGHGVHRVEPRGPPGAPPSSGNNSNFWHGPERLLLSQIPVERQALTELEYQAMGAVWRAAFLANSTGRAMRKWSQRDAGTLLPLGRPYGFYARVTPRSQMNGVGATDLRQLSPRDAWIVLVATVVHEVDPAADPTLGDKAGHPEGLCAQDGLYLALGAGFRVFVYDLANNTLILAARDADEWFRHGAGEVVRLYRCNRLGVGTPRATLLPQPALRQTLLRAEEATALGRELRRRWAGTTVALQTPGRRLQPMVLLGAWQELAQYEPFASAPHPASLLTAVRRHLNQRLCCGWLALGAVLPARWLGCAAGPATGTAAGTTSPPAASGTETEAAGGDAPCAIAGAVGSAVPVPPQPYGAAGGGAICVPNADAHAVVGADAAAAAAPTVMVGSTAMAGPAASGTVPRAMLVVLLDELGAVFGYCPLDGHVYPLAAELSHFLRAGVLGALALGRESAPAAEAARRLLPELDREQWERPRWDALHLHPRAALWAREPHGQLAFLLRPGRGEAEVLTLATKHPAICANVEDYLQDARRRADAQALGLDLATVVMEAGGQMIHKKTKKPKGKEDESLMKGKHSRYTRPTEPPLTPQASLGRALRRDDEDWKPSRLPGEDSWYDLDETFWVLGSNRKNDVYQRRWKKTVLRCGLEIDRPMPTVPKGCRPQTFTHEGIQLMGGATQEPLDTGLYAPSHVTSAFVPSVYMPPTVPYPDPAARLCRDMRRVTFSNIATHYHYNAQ", "UniProt P19525": "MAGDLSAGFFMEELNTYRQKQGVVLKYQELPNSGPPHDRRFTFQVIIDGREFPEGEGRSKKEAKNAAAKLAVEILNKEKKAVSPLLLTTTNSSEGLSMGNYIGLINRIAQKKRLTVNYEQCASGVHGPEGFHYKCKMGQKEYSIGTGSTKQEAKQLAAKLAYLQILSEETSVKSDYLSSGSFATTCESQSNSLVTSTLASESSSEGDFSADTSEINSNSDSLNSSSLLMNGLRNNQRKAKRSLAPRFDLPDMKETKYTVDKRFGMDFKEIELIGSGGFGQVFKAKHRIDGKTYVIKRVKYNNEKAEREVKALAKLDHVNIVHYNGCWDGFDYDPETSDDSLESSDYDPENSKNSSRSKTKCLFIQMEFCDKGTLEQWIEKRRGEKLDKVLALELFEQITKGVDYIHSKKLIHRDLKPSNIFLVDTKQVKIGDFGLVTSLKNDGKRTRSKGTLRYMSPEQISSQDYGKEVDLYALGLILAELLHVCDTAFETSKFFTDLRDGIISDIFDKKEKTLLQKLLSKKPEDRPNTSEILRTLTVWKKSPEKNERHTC"}, "source": "paper PMC5079575", "target": "human cytomegalovirus TRS1 (HCMV_(TRS1)), His-tagged (human cytomegalovirus (HCMV)) (UniProt P09695)", "assay": "pull-down; HeLa PKR KO cells co-transfected with untagged PKR and His-tagged TRS1; lysates (50mM NaH2PO4, 300mM NaCl, 10mM imidazole, 0.75% Tween 20) incubated with NiNTA agarose 2 hours at 4°C, washed 3x with 20mM imidazole; western blot with anti-PKR and anti-His", "note": "These are yes or no findings as the source states them, for the method shown. In cells and extracts the contact can be indirect. Some entries that bind do so weakly or less than the wild type.", "data": [{"substance": "human protein kinase R (HuPKR), wild type (from UniProt P19525 1-551) (enzyme)", "values": [{"measurement": "binding", "value": "binds"}]}]}
